Assay results taken from publication doi:10.1101/2023.03.23.533938 (bioRxiv, 2023).
The exact form of at least one protein or probe is not confirmed. For part of these data: Weaker means in comparison with the reference protein, sequence or condition of that experiment. For part of these data: At least one verdict was read from the data and is not stated in words by the source.

Experiments:
Test in all cases: EMSA
[1] = system: S5S1-7A (Schizosaccharomyces pombe); conditions: 3.5 mM Mg2+, no significant shift implied
[2] = system: S5S1-NON (Schizosaccharomyces pombe); conditions: 3.5 mM Mg2+, comparable to wild type
[3] = system: S5S1-PM (Schizosaccharomyces pombe); conditions: 3.5 mM Mg2+, mildly impaired

| Sequence | binding result [1] | binding result [2] | binding result [3] |
| --- | --- | --- | --- |
| TTGATAAGAGGTCATTTTTGCGGATGGCTTAGAGCTTAATTGCTGAATCTGGTGCTGTAGCTCAACATGTTTTAAATATG [BA663 80-mer ssDNA] | binds more weakly | binds | binds more weakly |
| TTGATAAGAGGTCATTTTTGCGGATGGCTTAGAGCTTAATTGCTGAATCTGGTGCTGTAGCTCAACATGTTTTAAATATG (double strand) [BA663/BA664 80-mer dsDNA] | binds more weakly | binds | binds more weakly |
